Test results published in patent publication US20250082768 (published 2025).

Assay: general procedure: Fmoc solid-phase peptide synthesis; Merck LL MHBA low-loading Rink amide resin (0.308 mmol/g, 100-200 mesh); HATU/DIPEA
Conditions: conjugation step

DBCO-PEG5-PEG2-Glu(-PEG4-Val-Cit-PABC-MMAE)-PEG2-PEG2-Glu(-PEG4-Val-Cit-PABC-MMAE)-NH2
conjugation yield: 16%
